For data set [1], the system named is MBP-BcWRKY22. Nature of the data set: competition with a labelled probe. The settings on record: mutated competitor 10x, 100x, 250x, did not affect binding to N1; LightShift Chemiluminescent EMSA Kit (Beyotime); 3 ug crude protein, 100 nM biotin-labeled probe; pH and temperature not stated; recombinant protein; protein details: N-terminal MBP (pMAL-MBP vector). (In general: In EMSA bound probe runs differently from free probe, usually more slowly.)

Data set [2] has as its system MBP-BcWRKY22. The data set is described as follows: EMSA. The settings on record: 100 nM biotin probe, 3 ug protein; LightShift Chemiluminescent EMSA Kit (Beyotime); 3 ug crude protein, 100 nM biotin-labeled probe; pH and temperature not stated; recombinant protein; protein details: N-terminal MBP (pMAL-MBP vector).

These results are taken from article PMC10525746.

For at least one entry, the source does not settle the construct or the ends of the probe. For some assays here: No signal at the amounts used counts as a negative.

In the case of “TATTCGTACAAGTACAACAAAAAAAAACTAATAAAATAAAATAGC (double strand) [BcCAT2 W-box-2 mutated probe (AGTCAA to AAAAAA)]”, the binding result in data set [1] is reported as “no binding”.
Consider “TATTCGTACAAGTACAACAAGTCAAAACTAATAAAATAAAATAGC (double strand) [BcCAT2 promoter W-box-2 probe]”, for which, in data set [2], the binding result is recorded as “binds”.
